For 40 compounds, synaptosome phagocytosis results are on record in the supplement of paper PMC10689618.

Some of the results follow. Single values are uncertain, as repeats are few or missing.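 Labelled rat cortical synaptosomes were engulfed by primary human fetal astrocytes. Engulfment equaled a red/green ratio, corrected for calcein live-cell signal and normalized to the plate median. Compounds were toxic when calcein dropped over 30%, and reduced phagocytosis when below 70% of the median above 5 µM.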

In the first test the test system is Human fetal astrocytes. Description: synaptosome phagocytosis (pHrodo/calcein intensity ratio) relative to plate median of data wells; higher = more phagocytosis. Conditions: 11.11 µM; 24 h.
Regarding `COCC1=C(C(=O)OC(C)OC(=O)OC(C)C)N2C(=O)[C@@H](NC(=O)/C(=N\OC)c3csc(N)n3)[C@H]2SC1` (stereo not given in full), the synaptosome phagocytosis was 83.7%.

Consider `C[C@]12CCC(=O)C=C1CC[C@@H]1[C@@H]2[C@@H](O)C[C@@]2(C)[C@H]1CC[C@]2(O)C(=O)COP(=O)(O)O`, for which the synaptosome phagocytosis was 125%.

Take `CC1(C)[C@@H](OC(=O)CCC(=O)O)CC[C@]2(C)[C@H]3C(=O)C=C4[C@@H]5C[C@@](C)(C(=O)O)CC[C@]5(C)CC[C@@]4(C)[C@]3(C)CC[C@@H]12`: the synaptosome phagocytosis is 120%.

`C/C=C/c1ccc(OC)cc1`: the synaptosome phagocytosis was 115%.

As for `CCOc1cc(CC(=O)N[C@@H](CC(C)C)c2ccccc2N2CCCCC2)ccc1C(=O)O`, the synaptosome phagocytosis was 132%.

For `CC(=O)c1ccc[nH]1`, the synaptosome phagocytosis was 111%.

In the case of `O=C(Cn1ccnc1[N+](=O)[O-])NCCO`, the synaptosome phagocytosis is 88.5%.

Regarding `NC(=O)c1ncn([C@@H]2O[C@H](CO)[C@@H](O)[C@H]2O)c1N`, the synaptosome phagocytosis is 114%.

For `COc1cc(/C=C/C(=O)CC(=O)/C=C/c2ccc(O)c(OC)c2)ccc1O`, the synaptosome phagocytosis is 54%.

For the compound `COc1cc(O)c(C(C)=O)c(O)c1`, the synaptosome phagocytosis is 97.1%.

In the case of `CC(=O)O[C@@H]1CC[C@@]2(C)C(C[C@@H](OC(C)=O)[C@@]3(C)C4=CC(=O)O[C@@H](c5ccoc5)[C@]4(C)CCC23)C1(C)C` (stereo partly drawn) [3alpha-ACETOXYDIHYDRODEOXYGEDUNIN], the synaptosome phagocytosis was 104%.

`CN(C)CCCOc1nn(Cc2ccccc2)c2ccccc12`: the synaptosome phagocytosis is 99.1%.

`O=c1cc(-c2ccccc2)oc2cccc(O)c12`: the synaptosome phagocytosis was 124%.

As to `C1CNCCN1`, the synaptosome phagocytosis was 118%.

Regarding `OC[C@@H](O)[C@@H](O[C@@H]1O[C@H](CO)[C@@H](O)[C@H](O)[C@H]1O)[C@H](O)[C@@H](O)CO`, the synaptosome phagocytosis was 82.7%.

As for `CC(CCc1ccc(O)cc1)NCCc1ccc(O)c(O)c1` (stereo not given), the synaptosome phagocytosis was 74.5%.

Consider `Oc1cccc(O)c1`, for which the synaptosome phagocytosis is 104%.

In the case of `COc1cc(O)c(C)c(O)c1`, the synaptosome phagocytosis is 119%.

With `CCOC(=O)Nc1nc2ccccc2[nH]1`, the synaptosome phagocytosis was 113%.

With `COc1cc2c(cc1OC)-c1c(oc3cc(O)cc(O)c3c1=O)CO2`, the synaptosome phagocytosis is 92.5%.

As to `Nc1cc(C(Cl)=C(Cl)Cl)c(S(N)(=O)=O)cc1S(N)(=O)=O`, the synaptosome phagocytosis was 76.8%.

In the case of `N[C@@H](C(=O)O)[C@@H](O)[C@H](O)[C@H](O)CO`, the synaptosome phagocytosis is 119%.

On to `C[C@@H]1CC[C@@]2(OC1)O[C@H]1C[C@H]3[C@@H]4CC=C5C[C@@H](O)CC[C@]5(C)[C@H]4CC[C@]3(C)[C@H]1[C@@H]2C`, for which the synaptosome phagocytosis is 149%.

Turning to `Cc1cc(-c2ccccc2)nnc1NCCN1CCOCC1`, the synaptosome phagocytosis was 77.3%.

For `COc1cc(-c2cc(=O)c3c(O)c(OC)c(OC)c(OC)c3o2)cc(OC)c1OC`, the synaptosome phagocytosis was 51.6%.

Staying with this test, now noted: 22.22 µM; 24 h.
For the compound `NC(=O)c1cccnc1`, the synaptosome phagocytosis was 103%.

`C[C@H]1O[C@H](O[C@H]2[C@H](O)[C@@H](O)[C@@H](O[C@@H]([C@H](O)[C@@H](O)C=O)[C@H](O)CO)O[C@@H]2CO)[C@H](O)[C@@H](O)[C@@H]1N[C@H]1C=C(CO)[C@@H](O)[C@H](O)[C@H]1O`: the synaptosome phagocytosis is 95.1%.

Take `CCN(CC)CCOC(=O)C(c1ccccc1)c1ccccc1`: the synaptosome phagocytosis was 105%.

Regarding `N[C@@H](CSCSC[C@H](N)C(=O)O)C(=O)O`, the synaptosome phagocytosis was 102%.

Turning to `C=CC1=C(C)/C(=C/c2[nH]c(Cc3[nH]c(/C=C4\NC(=O)C(C)=C4C=C)c(C)c3CCC(=O)O)c(CCC(=O)O)c2C)NC1=O`, the synaptosome phagocytosis was 114%.

As for `C[C@]12CC[C@@H]3c4ccc(O)cc4CC[C@H]3[C@@H]1CC[C@@H]2OC(=O)CCC1CCCC1`, the synaptosome phagocytosis is 83.8%.

For the compound `C[C@@H]1C(=O)O[C@H]2C[C@@]34[C@H]5C[C@@H](C(C)(C)C)[C@]36[C@@H](OC(=O)[C@@H]6O)O[C@@]4(C(=O)O5)[C@]21O`, the synaptosome phagocytosis is 126%.

Turning to `CN(C)CCOC(c1ccc(Cl)cc1)c1ccccn1` (stereo not given), the synaptosome phagocytosis is 89.3%.

In the case of `COc1ccc(/C=C/C(=O)O)cc1OC`, the synaptosome phagocytosis was 137%.

Take `COc1ccc2c(c1)O[C@H]1c3ccc(OC)cc3OC[C@@H]21`: the synaptosome phagocytosis is 89.4%.

Regarding `CCCCC(CC)CN=C(N)N=C(N)NCCCCCCNC(N)=NC(N)=NCC(CC)CCCC` (stereo not given), the synaptosome phagocytosis was 3.6%.

On to `Cc1ncc(C[n+]2csc(CCO)c2C)c(N)n1`, for which the synaptosome phagocytosis is 111%.

For `O=C(/C=C/c1ccccc1)c1ccc(O[C@@H]2O[C@H](CO)[C@@H](O)[C@H](O)[C@H]2O)cc1O`, the synaptosome phagocytosis was 98.1%.

Regarding `COc1ccc(C(C)=O)c(O)c1`, the synaptosome phagocytosis was 124%.

Consider `COc1c2ccoc2cc2oc(C)cc(=O)c12`, for which the synaptosome phagocytosis was 67.1%.

In the case of `COCC1=C(C(=O)OC(C)OC(=O)OC(C)C)N2C(=O)[C@@H](NC(=O)/C(=N\OC)c3csc(N)n3)[C@H]2SC1` (stereo not given in full), the synaptosome phagocytosis was 109%.

Consider `C[C@]12CCC(=O)C=C1CC[C@@H]1[C@@H]2[C@@H](O)C[C@@]2(C)[C@H]1CC[C@]2(O)C(=O)COP(=O)(O)O`, for which the synaptosome phagocytosis is 114%.

`CC1(C)[C@@H](OC(=O)CCC(=O)O)CC[C@]2(C)[C@H]3C(=O)C=C4[C@@H]5C[C@@](C)(C(=O)O)CC[C@]5(C)CC[C@@]4(C)[C@]3(C)CC[C@@H]12`: the synaptosome phagocytosis was 101%.

In the case of `C/C=C/c1ccc(OC)cc1`, the synaptosome phagocytosis was 95.9%.

Consider `CCOc1cc(CC(=O)N[C@@H](CC(C)C)c2ccccc2N2CCCCC2)ccc1C(=O)O`, for which the synaptosome phagocytosis is 112%.

`CC(=O)c1ccc[nH]1`: the synaptosome phagocytosis was 140%.

With `O=C(Cn1ccnc1[N+](=O)[O-])NCCO`, the synaptosome phagocytosis is 121%.

On to `NC(=O)c1ncn([C@@H]2O[C@H](CO)[C@@H](O)[C@H]2O)c1N`, for which the synaptosome phagocytosis was 113%.

In the case of `COc1cc(/C=C/C(=O)CC(=O)/C=C/c2ccc(O)c(OC)c2)ccc1O`, the synaptosome phagocytosis is 28.8%.

On to `COc1cc(O)c(C(C)=O)c(O)c1`, for which the synaptosome phagocytosis is 130%.

As for `CC(=O)O[C@@H]1CC[C@@]2(C)C(C[C@@H](OC(C)=O)[C@@]3(C)C4=CC(=O)O[C@@H](c5ccoc5)[C@]4(C)CCC23)C1(C)C` (stereo partly drawn) [3alpha-ACETOXYDIHYDRODEOXYGEDUNIN], the synaptosome phagocytosis is 102%.

Consider `CN(C)CCCOc1nn(Cc2ccccc2)c2ccccc12`, for which the synaptosome phagocytosis was 93.1%.

Take `O=c1cc(-c2ccccc2)oc2cccc(O)c12`: the synaptosome phagocytosis is 106%.

`C1CNCCN1`: the synaptosome phagocytosis is 94.8%.

In the case of `OC[C@@H](O)[C@@H](O[C@@H]1O[C@H](CO)[C@@H](O)[C@H](O)[C@H]1O)[C@H](O)[C@@H](O)CO`, the synaptosome phagocytosis is 109%.

As for `CC(CCc1ccc(O)cc1)NCCc1ccc(O)c(O)c1` (stereo not given), the synaptosome phagocytosis is 86.5%.

With `Oc1cccc(O)c1`, the synaptosome phagocytosis is 109%.

Regarding `COc1cc(O)c(C)c(O)c1`, the synaptosome phagocytosis was 126%.

Turning to `CCOC(=O)Nc1nc2ccccc2[nH]1`, the synaptosome phagocytosis is 78.8%.

In the case of `COc1cc2c(cc1OC)-c1c(oc3cc(O)cc(O)c3c1=O)CO2`, the synaptosome phagocytosis is 105%.

For the compound `Nc1cc(C(Cl)=C(Cl)Cl)c(S(N)(=O)=O)cc1S(N)(=O)=O`, the synaptosome phagocytosis was 114%.

As to `N[C@@H](C(=O)O)[C@@H](O)[C@H](O)[C@H](O)CO`, the synaptosome phagocytosis is 121%.

On to `C[C@@H]1CC[C@@]2(OC1)O[C@H]1C[C@H]3[C@@H]4CC=C5C[C@@H](O)CC[C@]5(C)[C@H]4CC[C@]3(C)[C@H]1[C@@H]2C`, for which the synaptosome phagocytosis was 91.6%.

For `Cc1cc(-c2ccccc2)nnc1NCCN1CCOCC1`, the synaptosome phagocytosis is 89.5%.

Take `COc1cc(-c2cc(=O)c3c(O)c(OC)c(OC)c(OC)c3o2)cc(OC)c1OC`: the synaptosome phagocytosis was 124%.
